Data published in the supplement of paper PMC4604168 (melanoma cell lines).
The other results are listed elsewhere or left out. Single values are uncertain, as repeats are few or missing.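 The apoptosis fraction was the count of cleaved-PARP antibody-stained nuclei relative to all DNA-stained nuclei, imaged in 1,536-well plates. Screening doses were set so most cells survived, and baseline and induced cleaved-PARP levels vary greatly across cell lines.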

Tested on: IST-MEL1
Experiment: cleaved PARP positive nuclei fraction relative to DMSO control; melanoma cells; higher = more apoptosis
Details: library dose: low library concentration; 72 h

Compound	cleaved PARP positive nuclei fraction [%]
C[C@]1(O)C[C@@H](c2nc(-c3ccc4ccc(-c5ccccc5)nc4c3)c3c(N)nccn32)C1 + C[C@@H]1CCN(C(=O)CC#N)C[C@@H]1N(C)c1ncnc2[nH]ccc12 [CP690550] (first compound 0.4 µM, partner dose 1 µM)	94.1
Cn1sc(=O)n(Cc2ccccc2)c1=O + NCC(=O)Nc1ccc(-n2nc(C(F)(F)F)cc2-c2ccc3c(ccc4ccccc43)c2)cc1 [OSU03012] (first compound 0.4 µM, partner dose 1 µM)	176
Cn1sc(=O)n(Cc2ccccc2)c1=O + COc1cc2ncnc(Nc3ccc(Oc4ccccc4)cc3)c2cc1OC [SrcI1] (first compound 0.4 µM, partner dose 2 µM)	66.4
Cn1cnc2c(F)c(Nc3ccc(Br)cc3Cl)c(C(=O)NOCCO)cc21 [selumetinib] + Oc1nc(-c2ccc(C(F)(F)F)cc2)nc2c1CSCC2 [XAV939] (first compound 0.015 µM, partner dose 2 µM)	130
CCCCCCCCc1ccc(CCC(N)(CO)CO)cc1 [fingolimod] + O=C(CCCCCCC(=O)Nc1ccccc1)NO [vorinostat] (first compound 2 µM, partner dose 0.08 µM)	85.2
NC1(c2ccc(-c3nc4ccn5c(=O)[nH]nc5c4cc3-c3ccccc3)cc2)CCC1 + COc1cc2ncnc(Nc3ccc(Oc4ccccc4)cc3)c2cc1OC [SrcI1] (first compound 0.4 µM, partner dose 2 µM)	206
CCCCCCCCc1ccc(CCC(N)(CO)CO)cc1 [fingolimod] + Cc1ccc(NC(=O)c2cccc(N(C)C)c2)cc1NC(=O)c1ccc(O)cc1 [ZM336372] (first compound 2 µM, partner dose 2 µM)	97.7
Cn1sc(=O)n(Cc2ccccc2)c1=O + Cn1cc(/C=C2\C(=O)Nc3cccnc32)c2ccccc21 [GW441756] (first compound 0.4 µM, partner dose 0.4 µM)	66.4
CCN(CC)CCNC(=O)c1c(C)[nH]c(/C=C2\C(=O)Nc3ccc(F)cc32)c1C [sunitinib] + CC1(C)NC(=O)N(c2ccc([N+](=O)[O-])c(C(F)(F)F)c2)C1=O [nilutamide] (first compound 0.4 µM, partner dose 1 µM)	114
CN(c1ncccc1CNc1nc(Nc2ccc3c(c2)CC(=O)N3)ncc1C(F)(F)F)S(C)(=O)=O + COc1cc2c(Oc3ccc4[nH]c(C)cc4c3F)ncnc2cc1OCCCN1CCCC1 [cediranib] (first compound 0.08 µM, partner dose 0.4 µM)	73.5
C[C@@H](N)c1ccc(C(=O)Nc2ccnc3[nH]ccc23)cc1 + COc1cc2ncnc(Nc3ccc(Oc4ccccc4)cc3)c2cc1OC [SrcI1] (first compound 0.4 µM, partner dose 2 µM)	88.1
CCCCCCCCc1ccc(CCC(N)(CO)CO)cc1 [fingolimod] + Oc1cc(-c2nc(-c3ccccc3)[nH]c2-c2ccncc2)ccc1Cl [L779450] (first compound 2 µM, partner dose 0.2 µM)	107
C[C@@H](N)c1ccc(C(=O)Nc2ccnc3[nH]ccc23)cc1 + O=S(=O)(c1ccccc1)N(CC(F)(F)F)c1ccc(C(O)(C(F)(F)F)C(F)(F)F)cc1 [T0901317] (first compound 0.4 µM, partner dose 1.4 µM)	89.4
CN(c1ncccc1CNc1nc(Nc2ccc3c(c2)CC(=O)N3)ncc1C(F)(F)F)S(C)(=O)=O + O=c1cc(-c2cccc3c2Sc2ccccc2S3)oc(N2CCOCC2)c1 [KU55933] (first compound 0.08 µM, partner dose 1 µM)	51.4
C[C@]1(O)C[C@@H](c2nc(-c3ccc4ccc(-c5ccccc5)nc4c3)c3c(N)nccn32)C1 + CCc1ccc(CCOc2ccc(CC3SC(=O)NC3=O)cc2)nc1 [pioglitazone] (first compound 0.4 µM, partner dose 2 µM)	92
C[C@]1(O)C[C@@H](c2nc(-c3ccc4ccc(-c5ccccc5)nc4c3)c3c(N)nccn32)C1 + COc1ccc2c(c1)CCC1C2CCC2(C)C(NCCCCCCN3C(=O)C=CC3=O)CCC12 [U73122] (first compound 0.4 µM, partner dose 0.4 µM)	182

Quoted at random: 2 entries already listed.
Compound	cleaved PARP positive nuclei fraction [%]
Cn1sc(=O)n(Cc2ccccc2)c1=O + Cn1cc(/C=C2\C(=O)Nc3cccnc32)c2ccccc21 [GW441756] (first compound 0.4 µM, partner dose 0.4 µM)	66.4
C[C@@H](N)c1ccc(C(=O)Nc2ccnc3[nH]ccc23)cc1 + COc1cc2ncnc(Nc3ccc(Oc4ccccc4)cc3)c2cc1OC [SrcI1] (first compound 0.4 µM, partner dose 2 µM)	88.1
